Values from PubChem BioAssay AID686938 (Drosophila RNAi Screening Center, 2013)

- Aim: 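Looking for CRAC channel components and the factors controlling them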 (primary screen)
- System: Drosophila S2R+ cells
- Reagent: long dsRNA against Drosophila genes, about 0.25 µg dsRNA per well, roughly 10,000 cells
- Time to read-out: 5 days of knock-down before the calcium assay
- Treatment: thapsigargin (SERCA pump blocker) to empty calcium stores; entry signal taken 4 min after adding it
- Read-out: 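Duplicate raw fluo-4 intensities per well from a plate reader, at rest and four minutes after thapsigargin emptied calcium stores; entry-to-rest ratio filled for only some wells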
- Scale: calcium entry signal: higher = stronger calcium signal after store depletion; entry to resting ratio: higher = more calcium entry relative to resting level; resting calcium signal: higher = higher resting calcium signal
- Hit rule: 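Called when the plate z-score of the entry-to-rest ratio, mean of duplicates, falls below −3; wells with low overall dye signal (Fmax z below −2) or more than five off-targets excluded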
- Meaning of the calls: active = strongly reduced calcium entry; inactive = no strong reduction
The screen tested about 23,000 reagents; below is a random part of those that have a named target and a result. Over the whole deposit, 75 (0.33%) got an active call. 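Raw plate signals without normalisation; calls rest on plate z-scores that were not deposited; ratio present for only 364 wells.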 Names joined by + are all predicted targets of the reagent. The record does not give: the dose of the treatment.

no.	gene knocked down	dsRNA	calcium entry signal, replicate 1 (fluorescence units)	calcium entry signal, replicate 2 (fluorescence units)	entry to resting ratio	resting calcium signal, replicate 1 (fluorescence units)	resting calcium signal, replicate 2 (fluorescence units)	activity call
1	CG31265	DRSC15745	4.03e7	4.48e7		1.97e7	5.62e7	inactive
2	CG12920	DRSC06234	3.22e7	3.93e7		1.58e7	1.62e7	inactive
3	CG30357	DRSC22472	3.87e7	3.06e7		2.04e7	1.50e7	inactive
4	CG17167	DRSC20902	2.92e7	4.05e7		1.52e7	1.66e7	inactive
5	CG17167	DRSC20903	3.69e7	3.20e7		1.74e7	1.52e7	inactive
6	CG5274	DRSC11774	4.09e7	4.27e7		1.97e7	3.08e7	inactive
7	Ir51a	DRSC06256	3.72e7	4.58e7		1.78e7	1.93e7	inactive
8	ttm2	DRSC08268	4.18e7	5.18e7		2.09e7	2.16e7	inactive
9	CG16854	DRSC02536	3.46e7	5.30e7		1.71e7	2.14e7	inactive
10	Trmt6	DRSC03272	2.70e7	2.69e7		1.35e7	1.34e7	inactive
11	trsn	DRSC06078	3.75e7	3.59e7		1.71e7	1.65e7	inactive
12	His4:CG33883 + His4:CG33889 + His4:CG33899 + 20 more	DRSC21268	1.80e7	1.66e7		1.28e7	1.02e7	inactive
13	Amun	DRSC19847	3.69e7	4.38e7		2.12e7	2.38e7	inactive
14	CG15547	DRSC15085	4.44e7	6.52e7		2.26e7	2.44e7	inactive
15	CheA75a	DRSC10807	3.93e7	5.89e7		1.83e7	3.87e7	inactive
16	CG3961	DRSC10390	3.95e7	4.62e7		1.77e7	3.09e7	inactive
17	CG3961	DRSC10391	3.14e7	5.32e7		1.62e7	1.93e7	inactive
18	Pburs	DRSC02483	5.58e7	2.95e7		2.45e7	1.50e7	inactive
19	Cpr78Cc	DRSC11846	2.20e7	3.14e7		1.07e7	1.55e7	inactive
20	Hsp60C	DRSC03036	2.55e7	2.29e7		1.24e7	1.03e7	inactive
21	Cpr30B	DRSC02728	3.21e7	4.80e7		1.49e7	2.01e7	inactive
22	Aldh-III	DRSC06047	4.11e7			2.23e7		inactive
23	Lst8	DRSC18262	3.51e7	4.41e7		1.55e7	1.98e7	inactive
24	Plekhm1	DRSC04527	4.52e7	5.05e7		2.17e7	2.13e7	inactive
25	Unc-76	DRSC18193	4.13e7	5.14e7	2	2.03e7	2.15e7	inactive
26	Unc-76	DRSC18560	4.15e7	6.46e7	2.1	2.02e7	2.41e7	inactive
27	Cap-G	DRSC06652	2.30e7	3.38e7		1.17e7	1.59e7	inactive
28	Cap-G	DRSC06653	2.49e7	3.13e7		1.21e7	1.32e7	inactive
29	Cap-G	DRSC21805	3.55e7	2.77e7		2.12e7	1.91e7	inactive
30	Acp26Aa	DRSC01855	3.76e7	3.39e7		1.78e7	1.69e7	inactive
31	CG7049	DRSC08587	4.56e7	3.87e7		2.20e7	1.97e7	inactive
32	TotM	DRSC02355	3.80e7	4.40e7		1.88e7	1.92e7	inactive
33	CG4328	DRSC10410	3.24e7	4.69e7		1.92e7	2.57e7	inactive
34	CG4328	DRSC23146	3.67e7	4.02e7		1.79e7	1.94e7	inactive
35	Cdk5	DRSC07359	3.15e7	2.47e7		1.37e7	1.21e7	inactive
36	Oseg5	DRSC03209	5.78e7	5.53e7		3.01e7	2.42e7	inactive
37	CG32437	DRSC11760	2.63e7	4.04e7		1.30e7	1.70e7	inactive
38	CG32437	DRSC22020	2.89e7	6.28e7		1.46e7	2.79e7	inactive
39	Lcp65Ab2 + Lcp65Ab1	DRSC10340	2.91e7	5.28e7		1.44e7	2.09e7	inactive
40	Lcp65Ab2 + Lcp65Ab1	DRSC10343	2.74e7	4.05e7		1.34e7	1.75e7	inactive
41	RNaseP:RNA	DRSC22967	3.28e7	2.96e7		1.56e7	1.25e7	inactive
42	Dred	DRSC11057	3.13e7	5.29e7		1.52e7	2.32e7	inactive
43	Dred	DRSC11059	6.88e7	2.91e7		3.05e7	1.52e7	inactive
44	CG3823	DRSC18325	2.38e7	3.06e7		1.22e7	1.41e7	inactive
45	CG9953	DRSC11106	3.64e7	4.33e7		1.68e7	1.62e7	inactive
46	bnk	DRSC16912	3.83e7	5.23e7		1.90e7	2.24e7	inactive
47	HPS1	DRSC06195	5.27e7	4.28e7		2.08e7	1.89e7	inactive
48	lncRNA:CR42859	DRSC00103	1.58e7	2.55e7		8.62e6	1.15e7	inactive
49	Cog8	DRSC02961	5.14e7			2.39e7		inactive
50	CG15185	DRSC12565	4.22e7	3.62e7		2.03e7	1.69e7	inactive
51	Hao + Pex6	DRSC06097	4.93e7	4.37e7		2.10e7	1.84e7	inactive
52	Hao + Pex6	DRSC06704	3.99e7	3.81e7		1.87e7	1.47e7	inactive
53	MFS1	DRSC04115	3.95e7	4.31e7		2.02e7	1.93e7	inactive
54	CG14982	DRSC08440	3.03e7	4.22e7		1.92e7	2.18e7	inactive
55	CG14982	DRSC23022	3.75e7	3.82e7		1.80e7	1.77e7	inactive
56	Lac	DRSC07452	3.96e7	4.66e7		1.64e7	1.99e7	inactive
57	Rrp4	DRSC04434	2.42e7			1.46e7		inactive
58	Wsck	DRSC13682	4.48e7	3.62e7		2.12e7	2.01e7	inactive
59	hts	DRSC05791	2.16e7	4.77e7		1.05e7	2.14e7	inactive
60	CG13071	DRSC09954	3.23e7	5.15e7		1.83e7	2.03e7	inactive
61	COX6AL2 + Ir75d	DRSC10081	1.74e7	3.77e7		8.73e6	1.65e7	inactive
62	DUBAI + Tmem18	DRSC05344	4.52e7	5.55e7		2.03e7	2.31e7	inactive
63	p	DRSC16560	4.49e7	2.61e7		2.36e7	1.34e7	inactive
64	CG34202	DRSC05907	2.39e7	3.75e7		1.12e7	1.62e7	inactive
65	Mur29B	DRSC01018	4.77e7	4.69e7		2.40e7	2.13e7	inactive
66	Mur29B	DRSC02376	3.03e7	5.56e7		1.52e7	2.32e7	inactive
67	CG13992	DRSC02324	3.60e7	3.99e7		1.74e7	1.79e7	inactive
68	Pdp	DRSC17825	4.29e7	3.99e7		2.04e7	2.04e7	inactive
69	CG8300	DRSC18426	4.30e7	4.26e7		2.04e7	2.03e7	inactive
70	CG8300	DRSC23231	4.41e7	3.32e7		2.52e7	1.50e7	inactive
71	CG1663	DRSC06613	3.75e7	2.14e7		1.88e7	1.15e7	inactive
72	CG1663	DRSC22488	4.12e7	2.88e7		2.37e7	1.48e7	inactive
73	Cyp308a1	DRSC20238	4.54e7	3.81e7		2.12e7	1.67e7	inactive
74	Oda	DRSC07626	2.67e7	2.67e7		1.37e7	1.31e7	inactive
75	ECSIT	DRSC12348	4.09e7	3.06e7		2.08e7	1.58e7	inactive

Look-ups from above.
trsn [DRSC06078], resting calcium signal, replicate 2 (fluorescence units): 1.65e7
For “calcium entry signal, replicate 1 (fluorescence units)”, CG12920 [DRSC06234] reads 3.22e7
Entry for CG32437 [DRSC22020] in “resting calcium signal, replicate 1 (fluorescence units)”: 1.46e7
For “resting calcium signal, replicate 2 (fluorescence units)”, CG1663 [DRSC06613] has 1.15e7
For “resting calcium signal, replicate 1 (fluorescence units)”, CG9953 [DRSC11106] has 1.68e7
Under “activity call”, Plekhm1 [DRSC04527] has inactive
